# Source: PubChem BioAssay AID624291 (National Center for Advancing Translational Sciences (NCATS), 2012)
# Screen size: about 350,000 compounds; about 220 (0.063%) were called active. Inconclusive means that the source gave no clear call. Such entries were picked first, then a sample of the others. Calls come from the whole dose curve; as a rule, active = well fitted activation curve with a large enough effect; inconclusive = small, poorly fitted or top-dose-only effect; inactive = no such curve, though single readings can be large or run the other way. Potencies of inconclusive entries are doubtful fits and often do not repeat.
# Assay: qHTS for Activators of Integrin-Mediated Alleviation for Muscular Dystrophy; note: nearly all actives have a fitted effect of over 60% in size;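 for activation: 100% = response of the positive control SU9516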
# Settings: alpha7betagal myoblasts, beta-gal FDG fluorescence, 48 h; activation: at 38.3 µM (top of the series)
# Summary of the method: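 Alpha7betagal+/- myoblasts (passage 13) were plated 16-24 hr, then exposed to compounds (1:260 dilution of DMSO stock) for 48 hours at 37C. After MPER lysis, β-galactosidase reporter activity was read as FDG fluorescence (ex 480/em 540) after 30 minutes.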
# Potency is the fitted concentration of half-maximal effect.
Structure (SMILES),activation,Potency
Cc1nc2ncnn2c(C)c1Cc1cccc(F)c1,inactive: 33.7%,
COc1ccc(NS(=O)(=O)c2c(C)cc(C)cc2C)cn1,,"inconclusive: 28.2 µM [activator, single point]"
CCCCOc1ccc(C(=S)N2CCC(C(N)=O)CC2)cc1,,"inconclusive: 2.82 µM [activator, full curve, poor fit]"
N#C/C(=C/c1ccc(N2CCOCC2)o1)C(=O)Nc1ccccc1,,"inconclusive: 5.62 µM [activator, partial curve]"
Cn1c(SCC(=O)NNC(=S)Nc2ccccc2)nnc1-c1ccccc1,,"inconclusive: 15.8 µM [activator, single point]"
CC(C)C[C@@H](CN)NC(=O)c1nc[nH]c1C(=O)N[C@@H](C)C(=O)CNC[C@H](CC(C)C)NC(=O)c1nc[nH]c1C(=O)N[C@@H](CC(=O)O)C(=O)O,inactive: 36.8%,
C=CCNC(=O)c1cnn(-c2ccccc2)c1-c1ccccc1,,"inconclusive: 0.501 µM [activator, full curve, poor fit]"
O=C(/C=C/c1ccco1)NC(=S)Nc1cc(C(F)(F)F)ccc1N1CCOCC1,inactive: -39.8%,
CC(C)(C)NC(=O)COC(=O)c1ccccc1Oc1ccccc1,,"inconclusive: 28.2 µM [activator, single point]"
CCN(Cc1ccccc1)C(=O)CN1C(=O)c2ccccc2S1(=O)=O,inactive: 11.3%,
CCN1CCN(CCCNC(=O)c2cc3c(=O)oc4ccc(C)cc4c3s2)CC1,,"inconclusive: 5.01 µM [activator, single point]"
Cc1ccccc1C(=O)N/N=C/c1cccc2ccccc12,inactive: -28.9%,
CSc1nc2c(cc1C#N)CCC2,,"inconclusive: 11.2 µM [activator, single point]"
O=C(CN1CCN(c2ccc(O)cc2)CC1)N1CCc2ccccc21,,"inconclusive: 5.01 µM [activator, single point]"
S=c1[nH]nc(-c2cccnc2)n1/N=C/c1ccccc1,inactive: 10.5%,
COc1ccccc1N1CCN(S(=O)(=O)CCNC(=O)c2cc(OC)c(OC)c(OC)c2)CC1,inactive: -51.4%,
CCc1ccc(/C=C2/Sc3ccccc3N(CC(=O)NCCCN3CCOCC3)C2=O)cc1,inactive: -4.14%,
COc1ccc(C(C)=O)cc1CS(=O)(=O)CC(=O)NCCc1c[nH]c2ccccc12,,"inconclusive: 5.01 µM [activator, single point]"
Cc1ccc(-c2cc3ncc(C#N)c(N)n3n2)cc1,,"inconclusive: 1.58 µM [activator, partial curve, poor fit]"
COc1ccc2c(c1)CCc1cn[nH]c1-2,,"inconclusive: 11.2 µM [activator, single point]"
Cc1ccc(Sc2nnc(Cc3ccccc3)c3ccccc23)cc1,inactive: -56.2%,
COc1ccc(OCC(=O)NC(=S)Nc2ccc3c4c(cccc24)CC3)cc1,inactive: 11.2%,
O=C(COC(=O)CSc1nnc(-c2ccc(Cl)cc2)o1)Nc1cc(Cl)ccc1Cl,,"inconclusive: 28.2 µM [activator, single point]"
CCOC(=O)c1oc2ccccc2c1CSc1nnnn1-c1ccc(C)cc1,,"inconclusive: 17.8 µM [activator, single point]"

Structure (SMILES),activation,Potency
CCc1ccc(-c2cn3nc(-c4ccccc4)cnc3n2)cc1,,"inconclusive: 28.2 µM [activator, single point]"
CCOC(=O)c1c(NC(=S)Nc2ccccc2)sc2c1CC(C)(C)SC2,inactive: -24.1%,
CCc1cc2c(=O)c(-c3cnn(-c4ccccc4)c3)c(C)oc2cc1OCC(=O)Nc1ccc(F)c(F)c1,,"inconclusive: 22.4 µM [activator, single point]"
CN(c1ccc(OC(=O)c2ccc(-n3cncn3)c([N+](=O)[O-])c2)cc1)S(=O)(=O)c1ccccc1,,"inconclusive: 4.47 µM [activator, single point]"
COc1cc(-c2c(C#N)c(=O)[nH]c3c2c(C)nn3-c2ccccc2)ccc1O,inactive: 18.2%,
Nc1[nH]n(-c2ccccc2)c(=O)c1N=Nc1ccc2ncsc2c1,inactive: 13.2%,
O=C1CSC(c2cn(-c3ccccc3)nc2-c2cc3ccccc3o2)N1Cc1ccccc1 (configuration not stated),,"inconclusive: 15.8 µM [activator, single point]"
CCC1C(c2ccccc2)N(C)C(c2ccccc2)CC1(O)c1ccccc1 (configuration not stated),inactive: 0%,
CSC(SC)=C(C#N)C(=O)c1ccccc1,inactive: 15.3%,
O=C(CN1CCCCCCC1)N/N=C/c1ccc(F)cc1F,,"inconclusive: 11.2 µM [activator, partial curve, poor fit]"
Cc1cc(C(=O)Nc2ccccn2)cs1,,"inconclusive: 10 µM [activator, partial curve, poor fit]"
NC1=NC(c2ccc(Cl)cc2)C(C(=O)c2ccccc2)N1 (configuration not stated),,"inconclusive: 2.82 µM [activator, single point]"
O=C(COC(=O)c1ccco1)c1ccccc1,,"inconclusive: 4.47 µM [activator, partial curve]"
COCCOC(=O)c1c(NC(=O)CN(C)c2ccccc2)sc(C(N)=O)c1C,,"inconclusive: 3.16 µM [activator, single point]"
Cc1cc(C)cc(SCc2noc(C(=O)NC(C)C)c2C(=O)O)c1,inactive: 5%,
Cc1csc2c(=O)sc(NC(=O)c3cccs3)nc12,inactive: 1.59%,
CCCn1c(-c2ccc(OC)cc2)nc2nc3ccccc3nc21,inactive: 5.87% [at 7.66 µM],
O=C(N/N=C/c1ccccc1OCc1ccccc1Cl)c1cccnc1,,"inconclusive: 3.55 µM [activator, single point]"
CCOc1ccc2oc(C(=O)O)c(C)c2c1,inactive: 13%,
O=C(NCCCc1ccccc1)C(=O)c1c[nH]c2ccccc12,,"inconclusive: 3.55 µM [activator, single point]"
CC(C)n1nnnc1SCC(=O)c1c(N)n(C2CC2)c(=O)[nH]c1=O,,"inconclusive: 3.55 µM [activator, single point]"
COc1cccc(/C=C2\SC(=O)N(CCC(=O)NC3CCS(=O)(=O)C3)C2=O)c1 (configuration not stated),,"inconclusive: 5.01 µM [activator, single point]"
Cc1nnc(SCC(=O)Nc2cccc(S(=O)(=O)NC3=NCCCCC3)c2)n1Cc1ccccc1,,"inconclusive: 3.55 µM [activator, full curve, poor fit]"
CCOC(=O)c1ccc(CNC(=O)c2cc(COc3ccccc3SC)on2)o1,,"inconclusive: 5.01 µM [activator, single point]"

# 17 entries already listed, arranged by SMILES length, largest number first.
Structure (SMILES),activation,Potency
CN(c1ccc(OC(=O)c2ccc(-n3cncn3)c([N+](=O)[O-])c2)cc1)S(=O)(=O)c1ccccc1,,"inconclusive: 4.47 µM [activator, single point]"
CCc1cc2c(=O)c(-c3cnn(-c4ccccc4)c3)c(C)oc2cc1OCC(=O)Nc1ccc(F)c(F)c1,,"inconclusive: 22.4 µM [activator, single point]"
Cc1nnc(SCC(=O)Nc2cccc(S(=O)(=O)NC3=NCCCCC3)c2)n1Cc1ccccc1,,"inconclusive: 3.55 µM [activator, full curve, poor fit]"
COc1ccc(C(C)=O)cc1CS(=O)(=O)CC(=O)NCCc1c[nH]c2ccccc12,,"inconclusive: 5.01 µM [activator, single point]"
O=C1CSC(c2cn(-c3ccccc3)nc2-c2cc3ccccc3o2)N1Cc1ccccc1 (configuration not stated),,"inconclusive: 15.8 µM [activator, single point]"
COc1cc(-c2c(C#N)c(=O)[nH]c3c2c(C)nn3-c2ccccc2)ccc1O,inactive: 18.2%,
CCN1CCN(CCCNC(=O)c2cc3c(=O)oc4ccc(C)cc4c3s2)CC1,,"inconclusive: 5.01 µM [activator, single point]"
CC(C)n1nnnc1SCC(=O)c1c(N)n(C2CC2)c(=O)[nH]c1=O,,"inconclusive: 3.55 µM [activator, single point]"
CCOC(=O)c1ccc(CNC(=O)c2cc(COc3ccccc3SC)on2)o1,,"inconclusive: 5.01 µM [activator, single point]"
CCC1C(c2ccccc2)N(C)C(c2ccccc2)CC1(O)c1ccccc1 (configuration not stated),inactive: 0%,
Cn1c(SCC(=O)NNC(=S)Nc2ccccc2)nnc1-c1ccccc1,,"inconclusive: 15.8 µM [activator, single point]"
O=C(CN1CCN(c2ccc(O)cc2)CC1)N1CCc2ccccc21,,"inconclusive: 5.01 µM [activator, single point]"
CC(C)(C)NC(=O)COC(=O)c1ccccc1Oc1ccccc1,,"inconclusive: 28.2 µM [activator, single point]"
CCc1ccc(-c2cn3nc(-c4ccccc4)cnc3n2)cc1,,"inconclusive: 28.2 µM [activator, single point]"
S=c1[nH]nc(-c2cccnc2)n1/N=C/c1ccccc1,inactive: 10.5%,
Cc1ccccc1C(=O)N/N=C/c1cccc2ccccc12,inactive: -28.9%,
COc1ccc2c(c1)CCc1cn[nH]c1-2,,"inconclusive: 11.2 µM [activator, single point]"

# Additional records follow.

Structure (SMILES),activation,Potency
Cc1ccc(C(C[N+](=O)[O-])n2nc(C)cc2C)cc1 (configuration not stated),inactive: -11.1%,
CC[C@@H]1C(c2ccccc2)=NN(c2ccccc2)[C@H]1C(=O)N1CCOC1=O,inactive: 9.99%,
CCOC(=O)C1CCN(S(=O)(=O)c2cccc(C(=O)Nc3ccccc3)c2)CC1,,"inconclusive: 10 µM [activator, single point]"
CC1(C)CC(=O)C(CC2C(=O)CC(C)(C)CC2=O)C(=O)C1,,"inconclusive: 11.2 µM [activator, single point]"
O=C(c1ccc(Cl)c(S(=O)(=O)N2CCCCC2)c1)N1CCN(Cc2ccccc2)CC1,,"inconclusive: 12.6 µM [activator, partial curve]"
COC(=O)c1c(NC(=O)c2ccccc2OC)sc(C(=O)N2CCOCC2)c1C,inactive: 0%,
CCOc1cc(C(N)=O)cc(Cl)c1OCC,,"inconclusive: 12.6 µM [activator, single point]"
C/C=C1\COC(C(=O)NCc2ccncc2)(C(F)(F)F)C=C1C=C1CCCCC1 (configuration not stated),inactive: 11%,
CCOCCCNC(c1ccccc1)c1ccncc1 (configuration not stated),,"inconclusive: 28.2 µM [activator, single point]"
CC1(C)C(C=C(Cl)Cl)C1C(=O)N(Cc1ccc(Cl)cc1)C1CCS(=O)(=O)C1 (configuration not stated),,"inconclusive: 2.82 µM [activator, partial curve, poor fit]"
COc1ccccc1CN1CC(C(=O)NCc2ccc(N3CCCC3=O)cc2)CCC1=O (configuration not stated),inactive: 20.1%,
O=c1c(Cc2c(F)cccc2Cl)c(O)ccn1Cc1ccc2c(c1)OCO2,inactive: 5.87%,
Cc1ccsc1C(=O)N[C@@H](C)c1nnc2ccccn12,,"inconclusive: 28.2 µM [activator, single point]"
O=C(c1c[nH]c2ccccc12)C(F)(F)F,,"inconclusive: 3.16 µM [activator, single point]"
CC(=O)Nc1ccc(S(=O)(=O)N(Cc2ccccc2)c2ccccc2F)cc1,inactive: 20.3%,
O=C(NCc1ccccc1)C(c1c(F)cccc1Cl)N(C(=O)c1csnn1)C1CC1 (configuration not stated),,"inconclusive: 6.31 µM [activator, partial curve, poor fit]"
CCn1c2ccccc2c2cc(NC(=O)COC(=O)C3CCC(=O)N3)ccc21 (configuration not stated),inactive: -15%,
Nc1nnc(SCC(=O)OCc2ccccc2)s1,,"inconclusive: 1.41 µM [activator, partial curve, poor fit]"
CC(C)Nc1nc(SC(C)C(=O)Nc2ccccc2)nc(N(C)C)n1 (configuration not stated),,"inconclusive: 0.794 µM [activator, partial curve, poor fit]"
COc1ccc(OC)c(-c2c3c([nH]c(=S)c2C#N)CCCC3)c1,inactive: 5.32%,
COc1cc([N+](=O)[O-])ccc1NC(=O)NCc1ccccn1,,"inconclusive: 14.1 µM [activator, single point]"
CCC(Sc1nnc(C)s1)C(=O)Nc1nccs1 (configuration not stated),,"inconclusive: 5.01 µM [activator, single point]"
OC(CNc1ccccc1)Cn1ccc2ccccc21 (configuration not stated),,"inconclusive: 28.2 µM [activator, single point]"
Cc1cc(C(=O)NNC(=O)c2c(-c3c(Cl)cccc3Cl)noc2C)no1,,"inconclusive: 28.2 µM [activator, single point]"
